{"source": "patent US11511054B2", "about": "“Use of antistatic materials in the airway for thermal aerosol condensation process” (Alexza Pharmaceuticals, Inc., priority 2015, dated 2022)", "test": "Airway deposition and aerosol charges of normal, metallized and Permastat Plus airways (Example 40)", "assay_type": "physicochemical", "settings": "28.3 LPM", "key": {"[1]": {"settings": "Metallized airway, ESD gun 16 kV+"}, "[2]": {"settings": "Permastat Plus airway, ESD gun 16 kV+"}, "[3]": {"settings": "Permastat Plus airway, no ESD gun"}}, "note": "Values joined by “and” are separate entries in the source; they are usually repeats but may differ in a detail not shown here. Equal entries are not always repeated.", "data": [{"smiles": "Cc1nnc2n1-c1ccc(Cl)cc1C(c1ccccc1)=NC2", "note": "[Alprazolam]", "values": [{"measurement": "Airway dep", "setting": "[1]", "result": 0, "unit": "%"}, {"measurement": "Airway dep (second column)", "setting": "[1]", "result": "0.001% and 0% and 0.002%"}, {"measurement": "Ave Airway dep", "setting": "[1]", "result": 0, "unit": "%"}, {"measurement": "Emitted dose", "setting": "[1]", "result": "0.971 mg and 0.959 mg and 0.963 mg"}, {"measurement": "HP dep", "setting": "[1]", "result": "0.028 mg and 0.041 mg and 0.035 mg"}, {"measurement": "Emitted dose", "setting": "Metallized airway, no ESD gun", "result": "0.964 mg and 0.961 mg"}, {"measurement": "HP dep", "setting": "Metallized airway, no ESD gun", "result": "0.036 mg and 0.038 mg"}, {"measurement": "Ave Airway dep", "setting": "Normal airway, ESD gun 16 kV+", "result": 8.5, "unit": "%"}, {"measurement": "Airway dep", "setting": "Normal airway, no ESD gun", "result": "1% and 9%"}, {"measurement": "Airway dep (second column)", "setting": "Normal airway, no ESD gun", "result": "0.007% and 0.095%"}, {"measurement": "Ave Airway dep", "setting": "Normal airway, no ESD gun", "result": 5, "unit": "%"}, {"measurement": "Emitted dose", "setting": "Normal airway, no ESD gun", "result": "0.956 mg and 0.874 mg"}, {"measurement": "HP dep", "setting": "Normal airway, no ESD gun", "result": "0.037 mg and 0.031 mg"}, {"measurement": "Airway dep", "setting": "[2]", "result": 0, "unit": "%"}, {"measurement": "Airway dep (second column)", "setting": "[2]", "result": "0.001% and 0%"}, {"measurement": "Ave Airway dep", "setting": "[2]", "result": 0, "unit": "%"}, {"measurement": "Emitted dose", "setting": "[2]", "result": "0.956 mg and 0.959 mg"}, {"measurement": "HP dep", "setting": "[2]", "result": "0.043 mg and 0.041 mg"}, {"measurement": "Airway dep", "setting": "[3]", "result": 0, "unit": "%"}, {"measurement": "Airway dep (second column)", "setting": "[3]", "result": 0, "unit": "%"}, {"measurement": "Ave Airway dep", "setting": "[3]", "result": 0, "unit": "%"}, {"measurement": "Emitted dose", "setting": "[3]", "result": "0.962 mg and 0.963 mg"}, {"measurement": "HP dep", "setting": "[3]", "result": "0.038 mg and 0.037 mg"}]}]}
